# The supplement of paper PMC8728848
# The other results are listed elsewhere or left out.
# B1: Pwp1 (Candida glabrata) (protein)
# chain: MGSSHHHHHHSSGLVPRGSHMASANPISITNVCQFPDNWARTAGFQATTVRLGLTIASNTYKELLNYPGLFNFATQKATVTQPNFSISGFPFFTGLYGLTVWPINLLVELQGYFVPPESGNYTFTLQGSDDAAILFFANPSTFACGSQNDWPQPREADITVTDTLVPSRTLYLVKGVAYPIRIAYYNGSGDGKLNVSFKDPSGTTHTDWKGYVWQYSNTCSTCTYT
# How the values were obtained:
# Assay in all cases: glycan array binding signal (z-score within array); higher = stronger binding
# Conditions in all cases: glycan notation: IUPAC condensed, linker removed
# [1] = biological target: GlcNAc(b1-2)Gal(b1-3)GalNAc
# Method in brief: (§1)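 Glycan array data were curated from 3228 arrays in the Consortium for Functional Glycomics database and kept only where the protein sequence was available. Glycan names were converted to IUPAC-condensed notation, and columns mapping to the same glycan were averaged. The binding signal is a within-array Z-score, averaged across arrays of the same protein sequence at different concentrations or buffers and across linkers. Negative Z-scores can be read as non-binding.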
# [2] = biological target: GlcNAc(b1-2)Man(a1-3)[GlcNAc(b1-2)Man(a1-6)]Man(b1-4)GlcNAc(b1-4)GlcNAc
# Method in brief: as §1
# [3] = biological target: GlcNAc(b1-2)Man(a1-3)[GlcNAc(b1-2)Man(a1-6)]Man(b1-4)GlcNAc(b1-4)[Fuc(a1-6)]GlcNAc
# Method in brief: as §1
# [4] = biological target: GlcNAc(b1-2)Man(a1-3)[GlcNAc(b1-4)][GlcNAc(b1-2)Man(a1-6)]Man(b1-4)GlcNAc(b1-4)GlcNAc
# Method in brief: as §1
# [5] = biological target: GlcNAc(b1-2)Man(a1-3)[GlcNAc(b1-4)][GlcNAc(b1-2)Man(a1-6)]Man(b1-4)GlcNAc(b1-4)[Fuc(a1-6)]GlcNAc
# Method in brief: as §1
# [6] = biological target: GlcNAc(b1-2)[GlcNAc(b1-4)]Man(a1-3)[GlcNAc(b1-2)Man(a1-6)]Man(b1-4)GlcNAc(b1-4)GlcNAc
# Method in brief: as §1
# [7] = biological target: GlcNAc(b1-2)[GlcNAc(b1-4)]Man(a1-3)[GlcNAc(b1-4)][GlcNAc(b1-2)Man(a1-6)]Man(b1-4)GlcNAc(b1-4)GlcNAc
# Method in brief: as §1
# [8] = biological target: GlcNAc(b1-2)[GlcNAc(b1-4)]Man(a1-3)[GlcNAc(b1-4)][GlcNAc(b1-2)[GlcNAc(b1-6)]Man(a1-6)]Man(b1-4)GlcNAc(b1-4)GlcNAc
# Method in brief: as §1
# [9] = biological target: GlcNAc(b1-2)[GlcNAc(b1-4)]Man(a1-3)[GlcNAc(b1-4)][GlcNAc(b1-2)[GlcNAc(b1-6)]Man(a1-6)]Man(b1-4)GlcNAc(b1-4)[Fuc(a1-6)]GlcNAc
# Method in brief: as §1
# [10] = biological target: GlcNAc(b1-2)[GlcNAc(b1-6)]Man(a1-6)[GlcNAc(b1-2)Man(a1-3)]Man(b1-4)GlcNAc(b1-4)GlcNAc
# Method in brief: as §1
# [11] = biological target: GlcNAc(b1-2)[GlcNAc(b1-6)]Man(a1-6)[GlcNAc(b1-2)Man(a1-3)]Man(b1-4)GlcNAc(b1-4)[Fuc(a1-6)]GlcNAc
# Method in brief: as §1
# [12] = biological target: GlcNAc(b1-2)[GlcNAc(b1-6)]Man(a1-6)[GlcNAc(b1-4)][GlcNAc(b1-2)Man(a1-3)]Man(b1-4)GlcNAc(b1-4)GlcNAc
# Method in brief: as §1
# [13] = biological target: GlcNAc(b1-3)Fuc
# Method in brief: as §1
# [14] = biological target: GlcNAc(b1-3)Gal
# Method in brief: as §1
# [15] = biological target: GlcNAc(b1-3)Gal(b1-3)GalNAc
# Method in brief: as §1
# [16] = biological target: GlcNAc(b1-3)Gal(b1-4)Glc
# Method in brief: as §1
# [17] = biological target: GlcNAc(b1-3)Gal(b1-4)GlcNAc
# Method in brief: as §1
# [18] = biological target: GlcNAc(b1-3)Gal(b1-4)GlcNAc(b1-2)Man(a1-3)[GlcNAc(b1-3)Gal(b1-4)GlcNAc(b1-2)Man(a1-6)]Man(b1-4)GlcNAc(b1-4)GlcNAc
# Method in brief: as §1
# [19] = biological target: GlcNAc(b1-3)Gal(b1-4)GlcNAc(b1-2)Man(a1-3)[GlcNAc(b1-3)Gal(b1-4)GlcNAc(b1-2)Man(a1-6)]Man(b1-4)GlcNAc(b1-4)[Fuc(a1-6)]GlcNAc
# Method in brief: as §1
# [20] = biological target: GlcNAc(b1-3)Gal(b1-4)GlcNAc(b1-2)[GlcNAc(b1-3)Gal(b1-4)GlcNAc(b1-6)]Man(a1-6)[GlcNAc(b1-3)Gal(b1-4)GlcNAc(b1-2)Man(a1-3)]Man(b1-4)GlcNAc(b1-4)GlcNAc
# Method in brief: as §1
# [21] = biological target: GlcNAc(b1-3)Gal(b1-4)GlcNAc(b1-3)Gal(b1-4)GlcNAc
# Method in brief: as §1
# [22] = biological target: GlcNAc(b1-3)Gal(b1-4)GlcNAc(b1-3)Gal(b1-4)GlcNAc(b1-2)Man(a1-3)[GlcNAc(b1-3)Gal(b1-4)GlcNAc(b1-3)Gal(b1-4)GlcNAc(b1-2)Man(a1-6)]Man(b1-4)GlcNAc(b1-4)GlcNAc
# Method in brief: as §1
binder,measurement,setting,value
B1,glycan array binding signal (z-score),[1],0.745
same,glycan array binding signal (z-score),[2],0.258
same,glycan array binding signal (z-score),[3],0.012
same,glycan array binding signal (z-score),[4],0.347
same,glycan array binding signal (z-score),[5],0.685
same,glycan array binding signal (z-score),[6],0.374
same,glycan array binding signal (z-score),[7],1.03
same,glycan array binding signal (z-score),[8],0.773
same,glycan array binding signal (z-score),[9],1.22
same,glycan array binding signal (z-score),[10],0.946
same,glycan array binding signal (z-score),[11],0.879
same,glycan array binding signal (z-score),[12],1.05
same,glycan array binding signal (z-score),[13],-0.288
same,glycan array binding signal (z-score),[14],0.927
same,glycan array binding signal (z-score),[15],-0.576
same,glycan array binding signal (z-score),[16],0.837
same,glycan array binding signal (z-score),[17],0.929
same,glycan array binding signal (z-score),[18],-0.003
same,glycan array binding signal (z-score),[19],-2.61
same,glycan array binding signal (z-score),[20],0.839
same,glycan array binding signal (z-score),[21],0.561
same,glycan array binding signal (z-score),[22],-0.374

# As a working copy, some entries already given.
binder,measurement,setting,value
B1,glycan array binding signal (z-score),[4],0.347
same,glycan array binding signal (z-score),[5],0.685
